Assay results: PubChem BioAssay AID330 (DTP/NCI, 2004)
The list does not hold the whole screen: it gathers tests that were run many times, whatever their T/C, doses with no T/C, and many T/C values between a quarter and a half above the control. Other doses and runs of a compound stand elsewhere. T/C gives the treated animals as a percentage of the vehicle group. Some entries give survivors of the animals treated and no T/C: the source holds a T/C of zero for them, seemingly a mark for toxic or unscored doses. Some doses without a T/C left all or most animals alive at the check, yet need not have been tolerated: survival well below the control is almost never listed, so the zero probably covers shortened survival too. Counts of survivors are from the toxicity check (mostly the fifth day) where no day follows; animals may have died later. Schedule codes are those of the source, taken here to give the interval after Q, in days (D) or hours (H), and the number of doses after X. Marks such as (2×) say how often a value occurs here. Some doses were run more than once; the values are given in rising order. For survival time, this PubChem deposit counts one and a half times the control or more as active, and values a quarter to a half above the control carry no call in these data; other NCI protocols may use other cut-offs. Some T/C values carry the count of animals alive at the toxicity check (mostly the fifth day); where none is given, no animal had died by that day.

Test system: P388 leukemia ip, CD2F1 mice, survival T/C
Assay: NCI In Vivo Anticancer Drug Screen. Data for tumor model P388 Leukemia (intraperitoneal) in CD2F1 (CDF1) mice
Conditions: T/C endpoint: median survival time, higher T/C = longer survival
[1] = dose: 120.0 mg/kg/injection, schedule: Q01DX005 (ip), vehicle: saline
[2] = dose: 240.0 mg/kg/injection, schedule: Q01DX005 (ip), vehicle: saline
[3] = dose: 200.0 mg/kg/injection, schedule: Q01DX005 (ip), vehicle: saline with Tween-80
[4] = dose: 200.0 mg/kg/injection, schedule: Q01DX009 (ip), vehicle: Klucel (hydroxypropylcellulose) (HPC)
[5] = dose: 50.0 mg/kg/injection, schedule: Q01DX009 (ip), vehicle: Klucel (hydroxypropylcellulose) (HPC)
[6] = dose: 100.0 mg/kg/injection, schedule: Q01DX009 (ip), vehicle: Klucel (hydroxypropylcellulose) (HPC)

Question: Which survivor count (dose: 12.0 mg/kg/injection, schedule: Q01DX009 (ip), vehicle: other) does the source give for O=C1c2ccccc2C(=O)N1CCCC[P+](c1ccccc1)(c1ccccc1)c1ccccc1 here?
Answer: 4 of 6

Question: CCCCN(CCCC)C(=N)c1ccc(OC)c(OC)c1 was tested. Which survivor count (dose: 50.0 mg/kg/injection, schedule: Q01DX005 (ip), vehicle: saline) did it give?
Answer: 1 of 5

Question: What about the survivor count (dose: 100.0 mg/kg/injection, schedule: Q01DX005 (ip), vehicle: saline) of the same compound?
Answer: 0 of 5

Question: And the survivor count (dose: 200.0 mg/kg/injection, schedule: Q01DX005 (ip), vehicle: saline)?
Answer: 0 of 5

Question: Which survivor count [1] does the source give for C(=N/NC1=NCCN1)/c1ccnc2ccccc12 here?
Answer: 1 of 6

Question: What about the survivor count [2] of the same compound?
Answer: 0 of 6

Question: How did the survivor count (dose: 50.0 mg/kg/injection, schedule: Q01DX005 (ip), vehicle: saline with Tween-80) turn out when CCOC(=O)c1n[nH]c(C)c1CC(N)c1ccccc1 (configuration not stated) was run?
Answer: 0 of 5 (2×)

Question: And the survivor count (dose: 100.0 mg/kg/injection, schedule: Q01DX005 (ip), vehicle: saline with Tween-80)?
Answer: 0 of 5

Question: And the survivor count [3]?
Answer: 0 of 5

Question: Which survivor count [4] does the source give for O=[N+]([O-])c1ccc([Se]CCO)c([N+](=O)[O-])c1 here?
Answer: 0 of 6

Question: With ClC(Cl)(Cl)C1[O][Sb]([c]2ccccc2)([c]2ccccc2)([c]2ccccc2)[O]1 (configuration not stated) as the compound, how does the survivor count [4] read?
Answer: 0 of 6

Question: Which results are given for COc1cc(C2=N/C(=C/c3cccs3)C(=O)O2)cc(OC)c1OC?
Answer: survivor count [5]: 6 of 6; survivor count [6]: 5 of 6; survivor count [4]: 6 of 6

Question: How did the survivor count [4] turn out when Cc1cc(C)nc(NS(=O)(=O)c2ccc(NC(=O)Nc3ccc([N+](=O)[O-])cc3Cl)cc2)n1 was run?
Answer: 6 of 6

Question: Which results are given for CCCCCCC(=O)CC(SCCN)c1ccccc1Cl (configuration not stated)?
Answer: survivor count (dose: 60.0 mg/kg/injection, schedule: Q01DX005 (ip), vehicle: saline): 1 of 6; survivor count [1]: 0 of 6; survivor count [2]: 0 of 6

Question: With CCCC[As](CCCC)SC1OC(C2COC(C)(C)O2)C2OC(C)(C)OC12 (configuration not stated) as the compound, how does the survivor count (dose: 12.5 mg/kg/injection, schedule: Q01DX009 (ip), vehicle: distilled water + Tween-80) read?
Answer: 4 of 6

Question: And the survivor count (dose: 25.0 mg/kg/injection, schedule: Q01DX009 (ip), vehicle: distilled water + Tween-80)?
Answer: 0 of 6

Question: What about the survivor count (dose: 50.0 mg/kg/injection, schedule: Q01DX009 (ip), vehicle: distilled water + Tween-80) of the same compound?
Answer: 6 of 6

Question: And the survivor count (dose: 100.0 mg/kg/injection, schedule: Q01DX009 (ip), vehicle: distilled water + Tween-80)?
Answer: 2 of 6

Question: And the survivor count (dose: 200.0 mg/kg/injection, schedule: Q01DX009 (ip), vehicle: distilled water + Tween-80)?
Answer: 0 of 6

Question: With [Ag].[Ag].[NH-]S(=O)(=O)c1ccc(N=Nc2cc(N=Nc3ccc(S([NH-])(=O)=O)cc3)c3c(NC(=O)C(Cl)Cl)cccc3c2OC(=O)C(Cl)Cl)cc1.[c-]1nccs1.[c-]1nccs1 as the compound, how does the survivor count (dose: 100.0 mg/kg/injection, schedule: Q01DX009 (ip), vehicle: saline with Tween-80) read?
Answer: 4 of 6

Question: And the survivor count (dose: 200.0 mg/kg/injection, schedule: Q01DX009 (ip), vehicle: saline with Tween-80)?
Answer: 0 of 6

Question: S=C(Nc1cc(Cl)c(Cl)cc1Cl)SCc1ccccc1 was tested. Which survivor count (dose: 200.0 mg/kg/injection, schedule: Q01DX009 (ip), vehicle: suspension in saline) did it give?
Answer: 1 of 6

Question: For O=C(O)C(CSC(c1ccccc1)(c1ccccc1)c1ccccc1)N=Cc1ccccc1O (configuration not stated), which T/C (dose: 66.0 mg/kg/injection, schedule: Q04DX003 (ip), vehicle: saline with Tween-80) is on record?
Answer: 136 % of control

Question: And the survivor count (dose: 400.0 mg/kg/injection, schedule: Q04DX003 (ip), vehicle: saline with Tween-80)?
Answer: 3 of 6

Question: With Cn1c(=O)c2c(ncn2-c2ccc(N)cc2Cl)n(C)c1=O as the compound, how does the survivor count (dose: 100.0 mg/kg/injection, schedule: Q01DX005 (ip), vehicle: distilled water + alcohol) read?
Answer: 3 of 5

Question: O=c1ccc2nccc3c4cc(O)ccc4n1c23 was tested. Which survivor count (dose: 0.44 mg/kg/injection, schedule: Q01DX009 (ip), vehicle: saline with Tween-80) did it give?
Answer: 3 of 4

Question: What about the survivor count (dose: 0.88 mg/kg/injection, schedule: Q01DX009 (ip), vehicle: saline with Tween-80) of the same compound?
Answer: 4 of 4

Question: And the survivor count (dose: 3.5 mg/kg/injection, schedule: Q01DX009 (ip), vehicle: saline with Tween-80)?
Answer: 4 of 4

Question: Which survivor count (dose: 25.0 mg/kg/injection, schedule: Q01DX009 (ip), vehicle: saline with Tween-80) does the source give for CN1CC2(c3ccccc3)CN(C)CC(c3ccccc3)(C1)C2=O here?
Answer: 2 of 6

Question: How did the survivor count (dose: 100.0 mg/kg/injection, schedule: Q01DX005 (ip), vehicle: Klucel (hydroxypropylcellulose) (HPC)) turn out when O=C(OCC1OC(O)(COC(=O)c2ccccc2)C(OC(=O)c2ccccc2)C1OC(=O)c1ccccc1)c1ccccc1 (configuration not stated) was run?
Answer: 5 of 5

Question: What about the survivor count (dose: 200.0 mg/kg/injection, schedule: Q01DX005 (ip), vehicle: Klucel (hydroxypropylcellulose) (HPC)) of the same compound?
Answer: 5 of 5

Question: How did the T/C (dose: 6.25 mg/kg/injection, schedule: Q01DX009 (ip), vehicle: Klucel (hydroxypropylcellulose) (HPC)) turn out when C/C(=N\NC(=S)N1CC2CCC(CC2)C1)c1ccccn1 was run?
Answer: 126 % of control [5 of 6 alive]

Question: And the survivor count (dose: 12.5 mg/kg/injection, schedule: Q01DX009 (ip), vehicle: Klucel (hydroxypropylcellulose) (HPC))?
Answer: 6 of 6

Question: What about the survivor count (dose: 25.0 mg/kg/injection, schedule: Q01DX009 (ip), vehicle: Klucel (hydroxypropylcellulose) (HPC)) of the same compound?
Answer: 6 of 6

Question: What about the survivor count [5] of the same compound?
Answer: 0 of 6

Question: What about the survivor count [6] of the same compound?
Answer: 0 of 6

Question: What about the survivor count [4] of the same compound?
Answer: 0 of 6

Question: What does the source list for CCNCCNc1ccc(NCCNCC)c2c1C(=O)c1ccccc1C2=O?
Answer: T/C (dose: 2.0 mg/kg/injection, schedule: Q01DX009 (ip), vehicle: acid diluted with saline): 148 % of control; T/C (dose: 3.13 mg/kg/injection, schedule: Q01DX009 (ip), vehicle: other): 142 % of control; T/C (dose: 6.25 mg/kg/injection, schedule: Q01DX009 (ip), vehicle: other): 149 % of control; survivor count (dose: 32.0 mg/kg/injection, schedule: Q01DX009 (ip), vehicle: acid diluted with saline): 7 of 8; survivor count (dose: 50.0 mg/kg/injection, schedule: Q01DX009 (ip), vehicle: other): 0 of 6 and 2 of 6; survivor count (dose: 100.0 mg/kg/injection, schedule: Q01DX009 (ip), vehicle: other): 0 of 6; survivor count (dose: 200.0 mg/kg/injection, schedule: Q01DX009 (ip), vehicle: other): 0 of 6; survivor count (dose: 400.0 mg/kg/injection, schedule: Q01DX009 (ip), vehicle: other): 0 of 6

Question: For CS(=O)(=O)OCCBr, which survivor count (dose: 200.0 mg/kg/injection, schedule: Q01DX001 (ip), vehicle: saline with Tween-80) is on record?
Answer: 3 of 6

Question: And the survivor count [3]?
Answer: 0 of 6

Question: And the survivor count (dose: 400.0 mg/kg/injection, schedule: Q01DX001 (ip), vehicle: saline with Tween-80)?
Answer: 0 of 6
